Results are given in words; binding and its absence hold for the method and conditions named. Some results given as binding are weak or reduced against the parent protein; the word gives no strength.
Legend:
[1] = target: T1, canine CD153 (canine) (UniProt E2R8I1); assay: flow cytometry on cells expressing CD153
T1 sequence: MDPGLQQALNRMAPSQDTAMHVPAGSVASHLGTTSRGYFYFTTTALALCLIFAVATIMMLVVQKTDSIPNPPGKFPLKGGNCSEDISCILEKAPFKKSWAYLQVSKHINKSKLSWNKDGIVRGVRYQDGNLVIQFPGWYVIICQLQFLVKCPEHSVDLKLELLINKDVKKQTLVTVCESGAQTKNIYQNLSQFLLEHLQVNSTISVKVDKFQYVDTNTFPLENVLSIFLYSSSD

[2] = target: T2, feline CD153 (feline); assay: flow cytometry on cells expressing CD153
T2 sequence: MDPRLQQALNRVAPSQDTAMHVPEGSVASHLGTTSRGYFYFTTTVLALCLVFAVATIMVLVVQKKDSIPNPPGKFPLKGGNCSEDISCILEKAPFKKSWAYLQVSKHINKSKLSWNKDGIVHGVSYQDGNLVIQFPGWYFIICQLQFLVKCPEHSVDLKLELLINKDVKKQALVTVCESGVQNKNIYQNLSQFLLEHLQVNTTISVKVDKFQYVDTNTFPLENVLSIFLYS

[3] = target: T1, canine CD153 (canine); assay: flow cytometry on 293T cells transfected with canine CD153 (AcGFP1-positive fraction)
[4] = target: T2, feline CD153 (feline); assay: flow cytometry on 293T cells transfected with feline CD153 (AcGFP1-positive fraction)

Measured: binding

B1: anti-human CD153 monoclonal antibody 2H7-9 (antibody, V domains shown)
VH: RVQLQQSGAELVRPGTSVKISCKASGYAFTNYWLGWVKQRPGHGLEWIGDIYPGNYNSYSNEKFKGKATLTADESSSTAYMQLSSLTSEDSAVYFCARIYGNYWIFDVWGAGTTVTVSS
VL: QIVLTQSPAIMSASPGEKVTMTCSASSSVNYMHWFQQKPGTSPKLWIYSTSDLASGVPARFSGSGSGTSYSLTISRMEAEDAATYYCQQRSSYPLTFGAGTKLELK
notes: Mouse hybridoma antibody (CD153-KO B6 mouse), purified with Protein A and detected with anti-mouse IgG
binds: all assays above

— EP4790069A1 (Kyoto University, dated 2026)
